Results deposited as PubChem BioAssay AID1259308 (NCATS, 2017).

Assay: 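Knock-downs that increase output of a recombinant reporter protein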 (primary screen)
System: human HEK293 embryonic kidney cells stably expressing firefly luciferase (HEK-CMV-Luc2-Hygro)
Reagent: single siRNA against human genes, 0.8 pmol siRNA per well
Duration: 72 h
Measurement: 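Reporter luminescence and viable-cell signal on separate replicate plates, given as percent of non-targeting control and median/MAD z-scores, plus per-cell luciferase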
Direction: total luciferase, z-score and total luciferase, % of control: higher = more reporter protein produced; luciferase per cell, z-score: higher = more reporter output per viable cell; viable cells, % of control: higher = more viable cells
Rule for the call: 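Active when the median/MAD z-score for overall luciferase is greater than 3; a gene was taken forward for validation with new siRNAs if at least two of its three siRNAs passed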
Meaning of the calls: active = raised luciferase; inactive = no rise
This is an unselected part of about 59,000 deposited reagents. About 1,510 of them (2.6%) were called active. 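Calls use total luciferase alone and ignore viability, so some active siRNAs may act by altering cell number.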 Entries without a mark were called inactive. The numbers tell different reagents against one gene apart.

target | reagent no. | total luciferase, z-score | total luciferase, % of control | luciferase per cell, z-score | viable cells, % of control
ADAM12 | 1 | 5.1 (active) | 183 | 2.51 | 106
ADAM12 | 2 | -1.23 | 57.4 | -1.31 | 90.5
ADAM12 | 3 | 0.647 | 94.8 | 0.272 | 98.6
SCGB2B2 | 1 | 0.68 | 95.4 | 0.679 | 89.2
SCGB2B2 | 2 | 0.177 | 85.4 | 0.383 | 86.3
SCGB2B2 | 3 | 0.428 | 90.4 | -0.318 | 110
C5AR2 | 1 | 2.97 | 141 | 1.44 | 108
C5AR2 | 2 | 0.228 | 86.4 | -0.762 | 118
C5AR2 | 3 | 0.913 | 100 | 0.147 | 108
HOXB4 | 1 | 0.171 | 85.3 | 0.0304 | 94.5
HOXB4 | 2 | 0.563 | 93.1 | 0.619 | 88.4
HOXB4 | 3 | -0.108 | 79.7 | -0.084 | 91.1
CMPK2 | 1 | -0.451 | 72.9 | -0.66 | 96.9
CMPK2 | 2 | 2.22 | 126 | 2.55 | 72
CMPK2 | 3 | 0.219 | 86.2 | 0.408 | 86.6
PIN1 | 1 | 0.323 | 88.3 | -0.0482 | 99.9
PIN1 | 2 | 0.581 | 93.4 | -0.0238 | 105
PIN1 | 3 | 2.07 | 123 | 1.38 | 95.6
TYW5 | 1 | 2.36 | 129 | 2.33 | 77.9
TYW5 | 2 | 0.386 | 89.6 | 0.725 | 82.7
TYW5 | 3 | -0.705 | 67.9 | -0.676 | 90.6
ZBED8L | 1 | -0.353 | 74.9 | -1.15 | 113
ZBED8L | 2 | -1.69 | 48.3 | -1.23 | 74.6
ZBED8L | 3 | -0.57 | 70.5 | 0.791 | 64
LMBRD2 | 1 | -0.765 | 66.7 | -1.14 | 100
LMBRD2 | 2 | -0.639 | 69.2 | -1 | 101
LMBRD2 | 3 | -0.399 | 74 | 0.456 | 73.3
DKK1 | 1 | 1.55 | 113 | 0.762 | 103
DKK1 | 2 | 0.166 | 85.2 | 0.689 | 79.4
DKK1 | 3 | -1.84 | 45.2 | -2.17 | 89.4
NR5A1 | 1 | 1.86 | 119 | 1.3 | 94.4
NR5A1 | 2 | 0.693 | 95.7 | 1.24 | 77.1
NR5A1 | 3 | -2.05 | 41 | -1.32 | 64.9
DIRAS1 | 1 | -1.18 | 58.3 | -1.15 | 88.1
DIRAS1 | 2 | -0.265 | 76.6 | -0.455 | 96.5
DIRAS1 | 3 | 0.000882 | 81.9 | -0.205 | 96.6
FAT3 | 1 | 0.212 | 86.1 | 0.586 | 82.5
FAT3 | 2 | -0.767 | 66.6 | -1.19 | 102
FAT3 | 3 | -0.276 | 76.4 | -0.78 | 105
